The list shows a part of the results. Small differences around the control level are noise.
compound: CN[C@@H]1C[C@H]2O[C@@](C)([C@@H]1OC)n1c3ccccc3c3c4c(c5c6ccccc6n2c5c31)C(=O)NC4 [staurosporine]; experiment: log2 fold change of tryptic peptide abundance, ligand vs vehicle (limited proteolysis) (log2 ratio); higher = more trypsin-susceptible (destabilized); details: ligand concentration: 20 uM; sample: K562 cleared lysate; digestion: 4 min, 22 C (HT-PELSA RT4min, Orbitrap Astral)

Amino acid sequences for entries named in this document (tags omitted). A change or cut given only in a name is not applied to a line headed by its entry.
UniProt P07992: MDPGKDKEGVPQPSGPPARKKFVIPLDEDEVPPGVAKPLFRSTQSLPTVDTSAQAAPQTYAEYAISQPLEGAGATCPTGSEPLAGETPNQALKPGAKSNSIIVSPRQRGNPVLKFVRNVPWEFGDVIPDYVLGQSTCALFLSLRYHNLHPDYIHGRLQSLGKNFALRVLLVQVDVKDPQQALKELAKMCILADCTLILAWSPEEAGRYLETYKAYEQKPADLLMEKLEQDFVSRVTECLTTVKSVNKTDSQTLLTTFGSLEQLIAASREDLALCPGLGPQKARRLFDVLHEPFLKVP
UniProt P0C7V9: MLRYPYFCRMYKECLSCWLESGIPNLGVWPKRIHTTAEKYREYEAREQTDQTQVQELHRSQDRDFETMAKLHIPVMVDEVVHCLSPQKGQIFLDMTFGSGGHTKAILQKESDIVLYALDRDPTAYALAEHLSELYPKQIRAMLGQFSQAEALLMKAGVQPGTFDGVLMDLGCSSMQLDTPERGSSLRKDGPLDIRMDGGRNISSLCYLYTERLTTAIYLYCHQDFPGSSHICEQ
UniProt P06748, whole entry: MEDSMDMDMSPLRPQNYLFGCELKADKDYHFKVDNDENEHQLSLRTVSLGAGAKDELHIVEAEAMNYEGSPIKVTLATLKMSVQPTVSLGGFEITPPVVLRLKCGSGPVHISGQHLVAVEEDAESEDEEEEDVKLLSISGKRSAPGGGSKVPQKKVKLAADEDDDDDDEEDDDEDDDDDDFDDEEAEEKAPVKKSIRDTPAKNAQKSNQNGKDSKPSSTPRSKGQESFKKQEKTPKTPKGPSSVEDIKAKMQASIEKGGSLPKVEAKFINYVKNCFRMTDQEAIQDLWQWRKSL
UniProt P00491: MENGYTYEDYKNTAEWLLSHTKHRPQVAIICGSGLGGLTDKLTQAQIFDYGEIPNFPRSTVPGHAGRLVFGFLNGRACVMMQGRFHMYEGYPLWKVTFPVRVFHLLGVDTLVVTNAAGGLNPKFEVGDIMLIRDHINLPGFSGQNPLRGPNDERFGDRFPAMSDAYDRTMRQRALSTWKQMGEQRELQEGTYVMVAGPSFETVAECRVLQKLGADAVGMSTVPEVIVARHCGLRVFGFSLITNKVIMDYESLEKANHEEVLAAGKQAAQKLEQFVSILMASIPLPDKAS
UniProt P13498: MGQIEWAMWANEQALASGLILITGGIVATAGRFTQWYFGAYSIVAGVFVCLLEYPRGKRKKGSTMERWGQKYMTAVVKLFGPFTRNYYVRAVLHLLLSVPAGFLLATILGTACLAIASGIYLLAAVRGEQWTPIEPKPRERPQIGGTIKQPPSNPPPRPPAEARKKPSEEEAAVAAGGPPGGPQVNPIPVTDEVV
UniProt P0DMU8: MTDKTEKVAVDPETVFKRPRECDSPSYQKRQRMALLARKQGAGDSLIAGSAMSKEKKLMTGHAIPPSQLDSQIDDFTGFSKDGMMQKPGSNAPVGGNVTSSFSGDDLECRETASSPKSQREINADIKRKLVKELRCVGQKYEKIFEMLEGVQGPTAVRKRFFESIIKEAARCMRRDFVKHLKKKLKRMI
UniProt P11387: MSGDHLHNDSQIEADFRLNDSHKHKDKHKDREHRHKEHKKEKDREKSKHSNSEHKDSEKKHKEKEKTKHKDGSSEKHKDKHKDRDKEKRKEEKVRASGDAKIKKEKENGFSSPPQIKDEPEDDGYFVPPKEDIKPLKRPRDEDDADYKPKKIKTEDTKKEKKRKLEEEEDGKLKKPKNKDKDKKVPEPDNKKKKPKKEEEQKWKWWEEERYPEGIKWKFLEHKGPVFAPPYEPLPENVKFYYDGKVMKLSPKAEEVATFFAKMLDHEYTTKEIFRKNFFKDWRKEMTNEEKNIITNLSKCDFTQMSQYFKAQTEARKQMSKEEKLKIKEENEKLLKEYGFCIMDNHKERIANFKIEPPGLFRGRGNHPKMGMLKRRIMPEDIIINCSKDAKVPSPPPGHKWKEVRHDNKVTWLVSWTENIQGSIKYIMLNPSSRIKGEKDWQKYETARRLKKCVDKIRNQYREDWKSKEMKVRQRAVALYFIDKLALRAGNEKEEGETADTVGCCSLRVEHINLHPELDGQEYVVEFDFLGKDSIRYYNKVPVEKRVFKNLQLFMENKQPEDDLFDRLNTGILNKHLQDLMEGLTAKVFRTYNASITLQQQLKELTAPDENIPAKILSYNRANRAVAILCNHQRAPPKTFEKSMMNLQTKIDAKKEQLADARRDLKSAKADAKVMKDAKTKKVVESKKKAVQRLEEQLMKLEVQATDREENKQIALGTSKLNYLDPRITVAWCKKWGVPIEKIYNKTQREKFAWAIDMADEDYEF
UniProt P11142, whole entry, looked up: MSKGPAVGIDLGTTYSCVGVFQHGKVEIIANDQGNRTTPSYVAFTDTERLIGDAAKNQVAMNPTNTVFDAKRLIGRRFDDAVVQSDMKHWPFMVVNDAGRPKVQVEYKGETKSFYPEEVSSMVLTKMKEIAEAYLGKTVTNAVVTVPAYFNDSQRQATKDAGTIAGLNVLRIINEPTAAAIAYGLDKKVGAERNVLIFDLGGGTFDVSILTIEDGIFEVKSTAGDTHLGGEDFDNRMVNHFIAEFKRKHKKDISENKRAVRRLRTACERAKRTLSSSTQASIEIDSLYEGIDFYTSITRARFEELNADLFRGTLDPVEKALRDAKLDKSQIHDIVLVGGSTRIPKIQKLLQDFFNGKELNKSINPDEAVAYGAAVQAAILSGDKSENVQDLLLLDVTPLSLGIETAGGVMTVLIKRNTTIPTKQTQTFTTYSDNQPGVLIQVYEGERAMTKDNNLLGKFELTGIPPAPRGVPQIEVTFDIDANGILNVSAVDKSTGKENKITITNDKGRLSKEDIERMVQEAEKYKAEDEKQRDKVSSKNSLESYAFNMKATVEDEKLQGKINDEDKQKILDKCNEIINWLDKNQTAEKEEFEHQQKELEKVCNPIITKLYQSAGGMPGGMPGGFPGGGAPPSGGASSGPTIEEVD
UniProt P07711: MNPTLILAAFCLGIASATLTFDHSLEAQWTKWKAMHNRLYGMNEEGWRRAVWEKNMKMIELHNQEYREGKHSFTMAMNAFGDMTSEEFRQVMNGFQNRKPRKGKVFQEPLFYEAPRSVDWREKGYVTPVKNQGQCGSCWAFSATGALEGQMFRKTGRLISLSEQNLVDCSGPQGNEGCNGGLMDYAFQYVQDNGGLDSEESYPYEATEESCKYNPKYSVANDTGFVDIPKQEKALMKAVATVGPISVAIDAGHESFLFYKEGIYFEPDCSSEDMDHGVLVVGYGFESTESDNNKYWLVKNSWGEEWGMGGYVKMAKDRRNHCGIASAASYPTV
UniProt P08559, whole entry: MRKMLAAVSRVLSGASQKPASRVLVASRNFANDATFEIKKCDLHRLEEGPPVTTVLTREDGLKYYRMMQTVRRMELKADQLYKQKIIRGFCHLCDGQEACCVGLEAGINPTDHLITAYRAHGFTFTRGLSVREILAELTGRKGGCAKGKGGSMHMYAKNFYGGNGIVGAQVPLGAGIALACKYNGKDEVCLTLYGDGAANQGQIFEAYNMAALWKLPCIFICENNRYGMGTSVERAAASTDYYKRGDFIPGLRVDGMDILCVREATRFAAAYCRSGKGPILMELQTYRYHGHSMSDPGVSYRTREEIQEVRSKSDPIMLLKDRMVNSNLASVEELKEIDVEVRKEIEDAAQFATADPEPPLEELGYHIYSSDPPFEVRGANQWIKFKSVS

Row | Target | log2 fold change
1 | ERCC1 (peptide sequence: SNSIIVSPR, peptide start residue: 98) (UniProt P07992) | 0.442
2 | UniProt P0C7V9 (peptide sequence: LHIPVMVDEVVHCLSPQK, peptide start residue: 71) | 0.39
3 | NPM1 (peptide sequence: TPKGPSSVEDIK, peptide start residue: 237) (UniProt P06748) | 0.805
4 | UniProt P00491 (peptide sequence: LGADAVGMSTVPEVIVAR, peptide start residue: 212) | 0.483
5 | CYBA (peptide sequence: QPPSNPPPRPPAEAR, peptide start residue: 150) (UniProt P13498) | 0.131
6 | UniProt P0DMU8 (peptide sequence: RPRECDSPSYQK, peptide start residue: 18) | -0.207
7 | TOP1 (peptide sequence: YYNKVPVEK, peptide start residue: 537) (UniProt P11387) | 1.03
8 | HSPA8 (peptide sequence: ATVEDEKLQGK, peptide start residue: 551) (UniProt P11142) | 0.711
9 | CTSL (peptide sequence: EKGYVTPVK, peptide start residue: 122) (UniProt P07711) | 0.38
10 | PDHA1 (peptide sequence: SGKGPILMELQTYR, peptide start residue: 275) (UniProt P08559) | 0.753

— the supplement of paper PMC12819154, “High-throughput peptide-centric local stability assay extends protein–ligand identification to membrane proteins, tissues and bacteria” (Nature Structural & Molecular Biology, 2025)
